{
  "sequences": {"note": "The chains behind the UniProt entries cited, without tags or fusion partners. Where a name states a change or a piece, a line headed by the entry shows the natural chain unless it says otherwise.", "UniProt Q9H4A3": "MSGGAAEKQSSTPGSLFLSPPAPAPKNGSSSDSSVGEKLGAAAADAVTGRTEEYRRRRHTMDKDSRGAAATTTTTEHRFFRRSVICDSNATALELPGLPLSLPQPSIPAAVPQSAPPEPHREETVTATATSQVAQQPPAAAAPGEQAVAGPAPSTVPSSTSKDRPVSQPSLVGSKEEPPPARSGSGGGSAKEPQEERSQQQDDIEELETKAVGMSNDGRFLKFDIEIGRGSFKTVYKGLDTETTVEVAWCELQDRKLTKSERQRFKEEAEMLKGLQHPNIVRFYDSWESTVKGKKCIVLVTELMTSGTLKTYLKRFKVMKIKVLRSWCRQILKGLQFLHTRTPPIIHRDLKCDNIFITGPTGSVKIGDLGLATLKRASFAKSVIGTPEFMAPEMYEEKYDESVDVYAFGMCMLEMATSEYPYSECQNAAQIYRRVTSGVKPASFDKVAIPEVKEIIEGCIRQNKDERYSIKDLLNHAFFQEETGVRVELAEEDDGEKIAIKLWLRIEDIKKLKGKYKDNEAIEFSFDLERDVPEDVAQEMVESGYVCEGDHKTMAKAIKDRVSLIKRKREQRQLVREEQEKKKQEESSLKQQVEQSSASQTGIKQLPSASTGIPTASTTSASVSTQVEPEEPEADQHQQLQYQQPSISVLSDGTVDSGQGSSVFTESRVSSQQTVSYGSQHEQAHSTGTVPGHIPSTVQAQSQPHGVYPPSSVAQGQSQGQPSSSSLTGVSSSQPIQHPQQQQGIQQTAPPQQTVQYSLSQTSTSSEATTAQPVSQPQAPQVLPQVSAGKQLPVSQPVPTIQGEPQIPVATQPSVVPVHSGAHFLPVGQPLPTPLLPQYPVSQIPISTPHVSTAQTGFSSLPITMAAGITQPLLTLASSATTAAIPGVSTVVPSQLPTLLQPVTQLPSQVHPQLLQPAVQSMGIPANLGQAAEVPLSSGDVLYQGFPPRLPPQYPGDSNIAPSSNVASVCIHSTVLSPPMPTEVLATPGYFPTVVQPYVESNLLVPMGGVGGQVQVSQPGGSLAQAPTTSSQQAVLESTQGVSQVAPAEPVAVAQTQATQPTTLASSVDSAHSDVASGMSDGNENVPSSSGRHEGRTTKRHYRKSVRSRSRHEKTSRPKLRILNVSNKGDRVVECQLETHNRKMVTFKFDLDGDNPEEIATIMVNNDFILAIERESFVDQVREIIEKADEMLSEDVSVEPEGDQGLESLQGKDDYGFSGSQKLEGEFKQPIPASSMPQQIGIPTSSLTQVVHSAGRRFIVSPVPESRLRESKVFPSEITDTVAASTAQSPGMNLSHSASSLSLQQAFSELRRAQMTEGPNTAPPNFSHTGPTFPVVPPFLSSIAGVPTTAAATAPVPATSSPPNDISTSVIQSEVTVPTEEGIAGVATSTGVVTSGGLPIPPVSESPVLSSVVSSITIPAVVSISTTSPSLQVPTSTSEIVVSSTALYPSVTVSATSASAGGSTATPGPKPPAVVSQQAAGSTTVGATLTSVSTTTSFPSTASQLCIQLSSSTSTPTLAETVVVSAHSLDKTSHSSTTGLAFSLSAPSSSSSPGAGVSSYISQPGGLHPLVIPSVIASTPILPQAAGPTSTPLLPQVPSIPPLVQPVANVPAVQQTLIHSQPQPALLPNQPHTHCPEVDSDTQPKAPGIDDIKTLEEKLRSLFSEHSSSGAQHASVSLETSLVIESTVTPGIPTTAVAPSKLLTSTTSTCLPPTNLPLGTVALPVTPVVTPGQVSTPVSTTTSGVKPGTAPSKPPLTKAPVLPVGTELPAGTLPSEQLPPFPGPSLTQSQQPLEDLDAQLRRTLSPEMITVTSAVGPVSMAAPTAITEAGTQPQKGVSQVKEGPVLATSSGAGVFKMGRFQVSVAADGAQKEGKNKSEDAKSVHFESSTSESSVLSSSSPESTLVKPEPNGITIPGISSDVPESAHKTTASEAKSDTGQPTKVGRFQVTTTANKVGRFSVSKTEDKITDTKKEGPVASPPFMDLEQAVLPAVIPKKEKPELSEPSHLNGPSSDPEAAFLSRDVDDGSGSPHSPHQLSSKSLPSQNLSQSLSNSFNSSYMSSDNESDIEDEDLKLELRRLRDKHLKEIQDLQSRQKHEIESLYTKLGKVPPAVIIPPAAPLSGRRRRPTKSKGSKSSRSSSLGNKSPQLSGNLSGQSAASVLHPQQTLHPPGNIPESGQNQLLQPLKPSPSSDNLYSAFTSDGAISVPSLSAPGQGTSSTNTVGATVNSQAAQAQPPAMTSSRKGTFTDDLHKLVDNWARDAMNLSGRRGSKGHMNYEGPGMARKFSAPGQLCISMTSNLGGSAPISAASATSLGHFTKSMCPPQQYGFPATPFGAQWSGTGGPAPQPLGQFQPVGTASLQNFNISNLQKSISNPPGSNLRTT", "UniProt P30153": "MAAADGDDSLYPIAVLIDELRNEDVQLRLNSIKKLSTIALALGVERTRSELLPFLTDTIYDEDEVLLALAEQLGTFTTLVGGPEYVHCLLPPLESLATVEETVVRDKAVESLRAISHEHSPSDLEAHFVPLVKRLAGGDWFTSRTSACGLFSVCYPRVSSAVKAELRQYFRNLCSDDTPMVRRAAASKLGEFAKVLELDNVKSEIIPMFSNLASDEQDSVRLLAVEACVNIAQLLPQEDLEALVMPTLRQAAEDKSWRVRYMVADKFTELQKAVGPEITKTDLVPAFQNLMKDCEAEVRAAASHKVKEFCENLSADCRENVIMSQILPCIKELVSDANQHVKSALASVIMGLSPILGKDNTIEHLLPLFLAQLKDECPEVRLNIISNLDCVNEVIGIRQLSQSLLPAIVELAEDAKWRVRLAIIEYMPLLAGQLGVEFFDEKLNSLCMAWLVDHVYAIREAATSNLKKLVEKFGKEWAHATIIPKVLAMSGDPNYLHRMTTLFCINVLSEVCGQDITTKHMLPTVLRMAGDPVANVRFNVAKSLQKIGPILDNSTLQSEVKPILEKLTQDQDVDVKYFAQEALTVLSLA"},
  "source": "paper PMC7710275",
  "biological_target": "yellow fluorescent protein-tagged (YFP-tagged) WNK1 (UniProt Q9H4A3)",
  "assay": "co-IP; HEC1A cells transfected with c4161 (YFP-WNK1) or cYFP for 48 hours; lysis in 50 mM Tris pH 8.0, 400 mM NaCl, 0.1% NP-40, 0.5 mM DTT; YFP captured on anti-GFP resin (YFP nanobody), 1 hour at 4°C; PPP2R1A detected by Western blot",
  "note": "These are yes or no findings as the source states them, for the method shown. Binding seen in cells or lysates may run through a third protein. Binding calls can cover weak binding; strength is not graded here.",
  "data": [
    {"substance": "PPP2R1A, the alpha isoform of the scaffold subunit A of PP2A (from UniProt P30153 1-589)", "values": [
      {"measurement": "binding", "result": "binds"}
    ]}
  ]
}
